Source: EP4538294A1
These are yes or no findings as the source states them, for the method shown. Some binding calls cover weakened binding; strength is not graded here.

The chains behind the UniProt entries cited, without tags or fusion partners. Where a name states a change or a piece, a line headed by the entry shows the natural chain unless it says otherwise. Residues count along the entry.
UniProt Q02223: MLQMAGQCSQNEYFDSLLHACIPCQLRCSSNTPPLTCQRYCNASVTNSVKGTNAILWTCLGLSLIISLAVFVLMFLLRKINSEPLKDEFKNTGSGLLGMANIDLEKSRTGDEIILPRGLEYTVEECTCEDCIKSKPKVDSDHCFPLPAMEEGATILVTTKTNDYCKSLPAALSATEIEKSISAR
human BCMA-his protein: residues 1-54 of Q02223
UniProt Q9NZD1: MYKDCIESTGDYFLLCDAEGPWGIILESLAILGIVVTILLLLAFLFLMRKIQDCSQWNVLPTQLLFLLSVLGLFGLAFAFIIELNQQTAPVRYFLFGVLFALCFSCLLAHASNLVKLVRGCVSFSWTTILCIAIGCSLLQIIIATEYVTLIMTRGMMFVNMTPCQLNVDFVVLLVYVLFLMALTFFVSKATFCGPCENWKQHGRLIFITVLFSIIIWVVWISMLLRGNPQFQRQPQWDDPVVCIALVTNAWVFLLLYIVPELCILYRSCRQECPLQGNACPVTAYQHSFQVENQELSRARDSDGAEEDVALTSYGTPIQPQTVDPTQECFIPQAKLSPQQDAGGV
UniProt P07766, residues 23-126: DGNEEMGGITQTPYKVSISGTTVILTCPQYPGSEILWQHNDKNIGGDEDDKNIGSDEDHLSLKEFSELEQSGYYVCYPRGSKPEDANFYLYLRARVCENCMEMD
UniProt P04234: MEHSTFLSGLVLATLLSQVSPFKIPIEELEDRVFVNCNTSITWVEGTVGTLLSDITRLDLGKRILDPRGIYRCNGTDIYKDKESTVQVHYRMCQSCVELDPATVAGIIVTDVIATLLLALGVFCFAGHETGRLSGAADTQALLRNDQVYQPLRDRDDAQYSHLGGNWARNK

How the values were obtained:
[1] = target: human BCMA on Flp-inCHO-human BCMA cells (human) (UniProt Q02223); assay: FACS
[2] = target: human GPRC5D on CHOK1-human GPRC5D cells (human) (UniProt Q9NZD1); assay: FACS
[3] = target: human CD3e/d-his protein (human) (UniProt P07766+P04234); assay: ELISA, coated protein
[4] = target: human BCMA-his protein (human) (UniProt Q02223); assay: ELISA, coated protein
[5] = target: human CD3e-his protein (human) (UniProt P07766); assay: ELISA, coated protein
[6] = target: human GPRC5D on CHOK1-human GPRC5D cells (human) (UniProt Q9NZD1); assay: cell-based ELISA
[7] = target: human CD3 on Jurkat cells and on activated human PBMC (human) (UniProt P07766+P04234); assay: FACS, Jurkat cells and activated human PBMC

Measured: binding

B1: Tri-65 (trispecific antibody, V domains shown)
VHH: EVQLVESGGGLVQPGGSLRLSCAASESISSIHIMAWYRQAPGKQRELVAGIRNDGSTVYVDSVKGRFTISRDNAKNSLYLQMNSLRAEDTAVYYCNADQGFGSYSEWERRSRWGQGTTVTVSS
VH 1: EVQLVQSGAEVKKPGASVKVSCKTSGYIFTNFGITWVRQAPGQRLEWMGENYPRRINTYYNEKFKGRVTITADKSASTAYMELSSLRSEDTAVYYCSRKDIFGLSYALDYWGQGTTVTVSS
VL 1: DIQMTQSPSSLSASVGDRVTITCKASQNVGTNVAWYQHKPGKSPKALIYSASYQYSGVPSRFSGSGSGTDFTLTISSLQPEDVATYICQQYKNYPYTFGGGTKVEIK
VH 2: EVQLVESGGGVVQPGRSLRLSCAASGFTFTDYYMSWVRQAPGKGLEWVAMSRNKAKGHTIEYSSSVKGRFTISRDNSKNTLYLQMNSLRAEDTAVYYCARDTYESYDGYFDVWGQGTTVTVSS
VL 2: DIVMTQSPDSLAVSLGERATINCKSSQSLFNSRSRKNYLAWYQQKPGQTPKLLIYWASIRESGVPDRFSGSGSGTDFTLTISSLQAEDVAVYYCKQSYYLYTFGQGTKLEIK
not listed: [7]
binds: all other assays above

B2: Tri-66 (trispecific antibody, V domains shown)
VHH: B1 VHH
VH 1: B1 VH 1
VL 1: B1 VL 1
VH 2: B1 VH 2
VL 2: B1 VL 2
not listed: [7]
binds: all other assays above

B3: Tri-59 (trispecific antibody, V domains shown)
VHH: B1 VHH
VH 1: EVQLVQSGAEVKKPGSSVKVSCKASGYTFTSYGISWVRQAPGQGLEWMGEIYPRSGNTYYNEKFKGRVTLTADKSTSTAYMELSSLRSEDTAVYYCARGRAYGRNYPMDYWGQGTTVTVSS
VL 1: EIVLTQSPATLSLSPGERATLSCRASQSIGTSIHWYQQKPGQSPRLLIKYASESISGIPARFSGSGSGTDFTLTISSLEPEDFAVYYCQQSNSWPYTFGGGTKVEIK
VH 2: B1 VH 2
VL 2: B1 VL 2
binds: [7]

B4: Tri-49 (trispecific antibody, V domains shown)
VHH: B1 VHH
VH 1: B3 VH 1
VL 1: B3 VL 1
VH 2: B1 VH 2
VL 2: B1 VL 2
binds: [7]

B5: Tri-55 (trispecific antibody, V domains shown)
VHH: B1 VHH
VH 1: B3 VH 1
VL 1: B3 VL 1
VH 2: B1 VH 2
VL 2: B1 VL 2
binds: [7]
